PMC3039559, “A Blue Native-PAGE analysis of membrane protein complexes in Clostridium thermocellum” (BMC Microbiology, 2011)

Sequences of proteins named here, by UniProt entry; tags and fusion partners are left off. A change or cut given only in a name is not applied to a line headed by its entry.
UniProt A3DE71: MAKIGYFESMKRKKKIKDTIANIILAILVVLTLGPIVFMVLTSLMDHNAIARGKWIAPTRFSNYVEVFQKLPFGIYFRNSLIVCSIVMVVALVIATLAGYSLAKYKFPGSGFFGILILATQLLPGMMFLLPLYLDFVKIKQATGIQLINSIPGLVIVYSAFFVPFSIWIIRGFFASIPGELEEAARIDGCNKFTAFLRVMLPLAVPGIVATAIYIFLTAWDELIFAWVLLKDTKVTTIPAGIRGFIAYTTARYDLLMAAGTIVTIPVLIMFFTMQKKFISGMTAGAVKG
UniProt A3DGK4: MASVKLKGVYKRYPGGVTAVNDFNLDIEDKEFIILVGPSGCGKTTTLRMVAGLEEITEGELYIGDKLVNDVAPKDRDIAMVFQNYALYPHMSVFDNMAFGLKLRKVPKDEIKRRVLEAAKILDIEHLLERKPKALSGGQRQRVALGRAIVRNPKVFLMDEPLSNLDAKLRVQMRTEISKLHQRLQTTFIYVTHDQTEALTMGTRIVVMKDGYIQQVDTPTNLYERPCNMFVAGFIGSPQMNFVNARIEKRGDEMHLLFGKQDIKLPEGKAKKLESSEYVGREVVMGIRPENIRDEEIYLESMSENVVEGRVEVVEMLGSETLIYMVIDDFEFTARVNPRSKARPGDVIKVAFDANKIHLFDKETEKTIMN
UniProt A3DE73: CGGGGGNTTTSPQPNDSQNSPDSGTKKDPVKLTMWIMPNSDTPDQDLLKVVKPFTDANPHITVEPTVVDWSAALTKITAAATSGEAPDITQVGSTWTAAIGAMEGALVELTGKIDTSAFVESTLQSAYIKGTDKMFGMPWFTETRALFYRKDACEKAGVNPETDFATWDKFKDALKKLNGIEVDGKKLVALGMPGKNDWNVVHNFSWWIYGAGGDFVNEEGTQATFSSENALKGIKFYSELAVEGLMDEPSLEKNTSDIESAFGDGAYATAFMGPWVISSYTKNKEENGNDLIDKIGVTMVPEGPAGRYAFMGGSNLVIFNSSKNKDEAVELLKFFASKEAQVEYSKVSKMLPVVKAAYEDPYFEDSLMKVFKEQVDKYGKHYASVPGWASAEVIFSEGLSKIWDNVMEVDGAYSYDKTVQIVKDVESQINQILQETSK

Key:
[1] = target: Binding-protein-dependent transport systems inner membrane component (Cthe_1018) (Clostridium thermocellum DSM 1237 (ATCC 27405) (endogenous)) (UniProt A3DE71); test: native gel or EMSA; two-dimensional blue native PAGE (4-15% gel) then SDS-PAGE of the membrane fraction solubilised at 4°C in 1.0% (w/v) DDM; about 40 μg protein; spots identified by MALDI-TOF/TOF; complex mass estimated from BN-PAGE markers
[2] = target: ABC transporter related protein (Cthe_1862) (Clostridium thermocellum DSM 1237 (ATCC 27405) (endogenous)) (UniProt A3DGK4); test: as above

Substance: ABC transporter related protein (Cthe_1862) (from UniProt A3DGK4)
- binding [1]: binds

Substance: Solute-binding protein (Cthe_1020) (from UniProt A3DE73)
- binding [2]: binds
- binding [1]: binds

Results are given in words; binding and its absence hold for the method and conditions named. Binding calls can cover weak binding; strength is not graded here.
